# PMC12040169 (PLOS Biology, 2025)
# The other results are listed elsewhere or left out.
# Test system: T1, CTL2-GFP (C. trachomatis L2/434/Bu, GFP-expressing)
# T1 construct: L2/434/Bu, GFP-expressing
# Parameters: species or system HeLa; Intracellular C. trachomatis growth in HeLa cells, bulk GFP fluorescence relative to DMSO
# Conditions: bulk GFP, single well; 28.5 h, 10 µM; inhibitor
row,SMILES,% of control remaining [%]
1,O=C(/C=C/c1ccc2c(c1)OCO2)NCCSc1ccccn1 [CBK264012],123.738
2,Cc1nonc1-c1csc(CC(C)n2cc(Cl)cn2)n1 (centres unmarked) [CBK304704],140.948
3,N#CC1CCC(CNC(=O)c2sc3ccccc3c2Cl)CC1 (centres unmarked) [CBK010864],113.643
4,c1ccc(CCNc2cc(-c3ccsc3)ncn2)nc1 [CBK036963],177.39
5,O=C1CCC(=O)N1CCOc1nccnc1OC1CCN(CCOc2ccccc2)CC1 [CBK084354],96.6958
6,Cc1cnc(CNC(=O)N2CCN(CCN3CCOCC3)CC2)cn1 [CBK155673],101.127
7,CC(C)SCC(=O)Nc1ccc(Br)cc1 [CBK057618],101.591
8,CC(C)[C@H]1CN(Cc2ccco2)CCN1C(=O)c1cscn1 [CBK285490],134.784
9,O=C(N[C@H]1CCN2C(=O)c3cc(-c4cccs4)ccc3NC(=O)[C@H]12)c1cnccn1 [CBK289337],84.137
10,O=C(Nc1nnc(-c2ccc3c(c2)OCCO3)o1)c1cccc(F)c1 [CBK287402],167.756
11,CC(C)(C)OC(=O)Nc1ccc2c(ccn2CCN2CCOCC2)c1 [CBK161767],89.2403
12,CC1=NN(c2nc(-c3cccc([N+](=O)[O-])c3)cs2)C(=O)C1/N=N/c1ccc(C)c(Br)c1 (centres unmarked) [CBK262430],100
13,O=C(O)CCSc1nc(-c2ccccc2)cc(=O)[nH]1 [CBK287076],104.868
14,CCn1cc(CN(CCN(C)C)Cc2cccs2)c(C)n1 [CBK283037],115.917
15,CC(C)C(=O)N1CCCC1c1cc2n(n1)[C@@H](C(F)(F)F)C[C@@H](C)N2 (some centres unmarked) [CBK282966],97.2655
16,Cc1cc2ncc3c(n2n1)CC1CCC3N1C(=O)c1cccs1 (centres unmarked) [CBK284415],152.859
17,O=C(c1cccc(F)c1)N1CCN(Cc2ccccn2)CC1 [CBK263023],115.353
18,O=C(c1ccc2nc[nH]c2c1)N1Cc2ccccc2C1 [CBK200322],104.819
19,O=C1N=C(NC2CCCCC2)SC1Cc1nc2ccccc2o1 (centres unmarked) [CBK067970],121.252
20,CCOc1ccc(S(=O)(=O)Nc2ccc(C(=O)O)cc2)cc1 [CBK287171],127.838
21,O=C(c1c(F)cccc1F)N1CCN(c2ncccn2)CC1 [CBK144517],105.402
22,O=C(O)C1CCCN1S(=O)(=O)c1ccc2[nH]c(=O)c(=O)[nH]c2c1 (centres unmarked) [CBK266971],166.806
23,Cn1c(/C=C/C=C/CN2CCN(Cc3ccccc3)CC2)nc2ccc([N+](=O)[O-])cc21 [CBK268281],122.268
24,COc1ccc(C(=O)Nc2cc(C)nn2-c2nc3ccccc3s2)cc1 [CBK287841],127.087
25,Cc1ccc2nc(N3CCCC(O)C3)c(CN3CCN(C)CC3)cc2c1 (centres unmarked) [CBK307710],87.1928

# Structural class: the entries above containing an NH in an aromatic ring
row,SMILES,% of control remaining [%]
13,O=C(O)CCSc1nc(-c2ccccc2)cc(=O)[nH]1 [CBK287076],104.868
18,O=C(c1ccc2nc[nH]c2c1)N1Cc2ccccc2C1 [CBK200322],104.819
22,O=C(O)C1CCCN1S(=O)(=O)c1ccc2[nH]c(=O)c(=O)[nH]c2c1 (centres unmarked) [CBK266971],166.806

# Next part:

row,SMILES,% of control remaining [%]
1,CCCNc1nccnc1-c1cccc(Cl)c1Cl [CBK088892],173.229
2,COC(=O)c1ccc2c(=O)n(CC3CCCO3)c(SC)nc2c1 (centres unmarked) [CBK304535],89.673
3,COc1ccc(C2CCCC(N(CCN(C)C)C(=O)Nc3ccc(F)c(F)c3)C2)cc1OC (centres unmarked) [CBK059339C],114.267
4,CCNc1nc(Sc2ccc(Cl)cc2)cc(C(F)(F)F)n1 [CBK003349],115.42
5,O=C1N=C(NC2CCCCCC2)S[C@@H]1CC1CCCCC1 [CBK070723],104.877
6,Cc1ccc(CN(Cc2nccn2C)C2CC(C)(C)NC(C)(C)C2)o1 [CBK283190],84.1197
7,O=C(Nc1cc2cccnc2nc1Cl)c1ccc(C(F)(F)F)cc1[N+](=O)[O-] [CBK091348],114.192
8,Cc1c(C(=O)N2CCN(C3CC3)CC2)nnn1Cc1ccc(F)cc1F [CBK305507],123.351
9,O=C(O)C1C2CCC(O2)C1C(=O)Nc1cnn(Cc2ccccc2)c1 (centres unmarked) [CBK286849],103.204
10,CC(C)(C)c1ccc(-c2cnc(N)c(-c3ccc(C(=O)N4CCOCC4)cc3)n2)cc1 [CBK084543A],71.4546
11,CC(C)N1CCC2(C/C=C/CNC(=O)c3ccccc3OCCNC2=O)CC1 [CBK292094],141.6
12,OCCN1CCN(C(c2cccs2)c2ccc3cccnc3c2O)CC1 (centres unmarked) [CBK296964],79.191
13,O=C(O)CCc1nc(-c2ccc3[nH]ccc3c2)no1 [CBK287070],101.097
14,CN1C(=O)c2ccccc2C(=O)[C@@]2(C)CN(C(=O)C3CCCC3)C[C@@H]12 [CBK284570],155.501
15,CCOC(=O)c1c(NC(=O)C2CCCCC2C(=O)O)sc(C)c1C (centres unmarked) [CBK265469],129.489
16,O=C(O)c1cccc(C(=O)Nc2cccc(NC(=O)C3CCCO3)c2)c1 (centres unmarked) [CBK268566],130.218
17,CCOC(=O)C1CCCN(Cc2ccc3c(c2)OCO3)C1 (centres unmarked) [CBK074569],102.583
18,CC(=O)NCc1ccc(-c2ccc(C(=O)NC3(c4ccccc4)CCCC3)c(C)n2)cc1 [CBK285891],108.226
19,Clc1ccccc1C1N(Cc2ccccc2)CCN1Cc1ccccc1 [CBK261217],112.185
20,O=C(CCS(=O)(=O)c1ccccc1)Nc1c(F)cc(F)cc1OC1CCNCC1 [CBK050226T],128.676
21,COc1ccccc1NCc1c(O)c(Br)cc2oc3c(c12)CCCC3 [CBK160398],55.2808
22,FC(F)(F)CCN1CCC2(CC1)NCCc1c2[nH]c2ccc(Cl)cc12 [CBK039331],38.4919
23,Sc1nnc(COc2ccccc2)n1/N=C/c1cccnc1 [CBK265308],128.502
24,C=CCNC(=O)N[C@H]1[C@H](O)[C@@H](N2CCCC2)[C@@H]2OC[C@H]1O2 [CBK288829],110.607
25,CCCCC(=O)N(C)c1c(CC)nc2c(OCc3ccc(C#N)cc3)cccn12 [CBK147779],121.76
